The values that follow come from PubChem BioAssay AID1347423 (Functional Genomics Laboratory (NCATS/FGL), 2020).

The whole screen tested about 52,000 sequences, of which about 210 (0.4%) were called active.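 How the source made its calls: active means gene whose silencing raises cell survival under the drug, median off-target-corrected z-score across its silencing RNAs 2 or more; inactive means the rest.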 The list shows a part of the results.

The nature of the assay: Resistance to Poly (ADP-Ribose) Polymerase inhibitor: Gene Identification via Genome-wide siRNA Screen. Particulars: mouse BRCA2 R2336H ES cells, olaparib, CellTiter-Glo viability; hits give high values. In a few lines:
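Mouse BRCA2 R2336H ES cells were reverse-transfected with siRNA (20 nM final), treated at 48 h with 500 nM olaparib, and read by CellTiter-Glo after 72 h. Scores: MAD-based z per siRNA, median per gene, seed off-target correction.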
Take GGAAGAGGAAUAUUACCAGTT against Marveld3: the z-score is inactive: 0.0116.

CGUAGGACAAAUUAUACCATT against Gria3: the z-score was inactive: -0.234. For “GGUUUCAGAAAAUCAACCATT against 1700111A04Rik”, the z-score was inactive: 0.656. On to CCCAAGGUACAUUUUUCAATT against Mab21l2, for which the z-score is inactive: -0.405. To GCUAACUGAUGCUAAAGGATT against Dnajd1 belongs inactive: -0.121; to CGAGUUAUUCUUGUUAUAGTT against V1rd13, inactive: 0.816; to GGGCUAUAUGGAUUUAAUGTT against Txnl1, inactive: -0.526. GCAAUUUUAGUUGGUGGAATT against Ddx24: the z-score was inactive: -1.56. In the case of CCGCUUGGGAUUAGCUAUGTT against Olfr543 it was inactive: -0.0531; in that of CGGAACUACCGCUUCUUUUTT against Zdhhc18, inactive: 0.786; in that of GGCAAUAAGCCCUUCACAATT against Pqlc2, inactive: 1.02. Take GCUAUAGAUUCCUCUGCCATT against Olfr1098: the z-score is inactive: -1.45. To “GGUGGAGACUAAUCCAUUATT against A930014I12Rik” belongs inactive: 0.0273; to GGAGCCAGGAAAAUUUAUGTT against Carm1, inactive: -0.237.

Consider GGAGCUGAUGGUUGAAUGUTT against Ehbp1, for which the z-score is inactive: -1.23.

Take GCUGUUAAAACUCUCGUUATT against Pdk3: the z-score was inactive: 0.651. Turning to GCUCAUAAAACUCCAAAAGTT against Prei3, the z-score is inactive: -1.57. In the case of GGAAAUCCUUACUAUGCAUTT against Enam it was inactive: 1.08; in that of GGAAAGAAAUGAAUCAGUATT against Ubce7ip1, inactive: -0.084; in that of CGACCAGCCAUGGUACAAATT against Ptprd, inactive: 1.79.

Take GGUGCUGCUGAGAUUUUUCTT against Pxt1: the z-score is inactive: -1.09. For “GGCAAGUUUGAGUUUUAGUTT against D730019B10Rik”, the z-score is inactive: 0.161. To GGUACUUUUACUCCCGAAGTT against Lgals3bp belongs inactive: 1.25. In the case of “GGCAGAGUGCUGGAUUUGUTT against 4933409G03Rik” it was inactive: -0.148; in that of GCCUCAAAUAUCGGGCCAUTT against Rapsn, inactive: 0.219; in that of CCAUGUAAGUUAUAAGUGUTT against Nxph1, inactive: -0.638. As for GGGAAUCGGACCAACUUACTT against Adssl1, the z-score is inactive: -0.784. For the sequence GGACUUCCCGAACUACAUATT against Zfp52, the z-score is inactive: -1.16. Take GCAUAUUAGUGCUUUUCCCTT against Olfr78: the z-score is inactive: 1.12. GGAAGAUUUCUUCACCGACTT against Ptf1a: the z-score is inactive: 1.21. For the sequence GGCUCUGGCAUUAAUGAACTT against Vnn1, the z-score was inactive: 0.936. To “GGCAGAUCUGAUCAACGGATT against 1500011K16Rik” belongs inactive: 0.333; to GGACCAUCUCUUUGAUUGGTT against Olfr424, inactive: 0.201. On to GGCAGAUUACUCUGAAUGATT against Prdx4, for which the z-score is inactive: 0.89. Take CGGAAUUUUAGGGAUAGGATT against Rcn1: the z-score was inactive: 0.867. On to GGCACAUUGUGGUGUCUUGTT against Pycr1, for which the z-score was inactive: -1.35.

Take GCCGUGAAGAAAAUUUUGATT against Olfr270: the z-score was inactive: -0.0821. Regarding GGACGCAAUGGUGUCUUCUTT against Adamts16, the z-score is inactive: -1.53. With GGAGACCUAGAUGCACUGATT against Arhgdig, the z-score is inactive: 1.34. As to GCUUCACAAGCAGUGUACUTT against Slc37a1, the z-score is active: 1.96. “GAUUUCAAGAUCCAGACUCTT against 2310007A19Rik”: the z-score is inactive: 0.42. To GGUGCAUAAUUUAAAGAUCTT against Za20d1 belongs inactive: 0.37; to CCCAUGACUUUAGAAUAGGTT against Kcnf1, inactive: -0.49; to “GCCUUACACCUGAAAUCGUTT against 3110003A22Rik”, inactive: 0.856. Regarding GCUGCUAAUGCUUGAUUAUTT against Il7r, the z-score is inactive: -0.876. With GGAAAUUACAAGCUAGCAUTT against Dnajc7, the z-score was inactive: 0.0955.

With CCCUUUACCCUACGCGUAUTT against Ifitm2, the z-score is inactive: -0.313. Take “GCUUGGAAGACUGUAAACUTT against 4921521K07Rik”: the z-score is inactive: 0.958. On to GCUCGUUUUCUAUUGAAGUTT against Bre, for which the z-score was inactive: 0.289. As to GGGUAUUUUUUUGUGGCUUTT against Nsg2, the z-score is inactive: 0.729. With GGAGGCUGUGAAAGAAUCATT against Gzma, the z-score is inactive: 2.24.

For GCUAUGUCAUGGUUGGAACTT against Bat3, the z-score was inactive: 1.86. Take GGCCGGAAGGAUAUUACCUTT against Epha3: the z-score is inactive: -0.573.

For the sequence GCAGAUACGUAGAAGGAUCTT against Olfr555, the z-score was inactive: 0.988. GGCCUCAAAUACCAUAACATT against BC066028: the z-score was inactive: 0.584. With “GGGACAAAUAAGAAAACCCTT against 1110021H02Rik”, the z-score is inactive: 1.04. As to GCAUUACACUGUUAAUGUUTT against Gopc, the z-score was inactive: -0.174. Regarding “GCGUGUUACCAUAAAACUUTT against 1700021K19Rik”, the z-score is inactive: 0.505. Take “GGUAAACUUGACAAUAGGATT against 2700069A02Rik”: the z-score was inactive: 0.776. On to CCUAAAACUCACCAUAGAGTT against Nfatc3, for which the z-score was inactive: -0.0858. Consider GGUGAAGCCACAAUGUUCCTT against Helt, for which the z-score was inactive: -0.626. Take GGUUAUUACCCACUCAAAATT against Mkks: the z-score is inactive: 0.749. Consider GGAACUGGAAAACUUCAAATT against Mrvi1, for which the z-score is inactive: -0.592.

GCAAGCAAACUGGAGUUGATT against Rnf137: the z-score is inactive: 0.651. To GGAUCUGACACACAUGAUCTT against Thrap5 belongs inactive: 1.46. Turning to GGACAUCAACGACAGUGAATT against Cdh22, the z-score was inactive: -0.762. GCCACAAUGGGCAGUCUUATT against Crim2: the z-score was inactive: -2.07. Regarding GGCAACUUUGUUAUAUACATT against Sh2bp1, the z-score was inactive: -0.76. In the case of GCGACUUCGCUAUAUCAAGTT against Samhd1 it was inactive: -2.63; in that of CCAUUAAAAACCCAGAGGATT against Xlkd1, inactive: 0.569.

Consider GGAGUUGAGCAAGACCAAGTT against BC027663, for which the z-score is inactive: 0.707.

Turning to GCAGAGGGACAGUCUACAUTT against Rorc, the z-score was inactive: -0.184.

With “GGCAUUGAAUUUGACUGGATT against 5033425B17Rik”, the z-score was inactive: -1.01. For GGGUGCAUGCCUUAAACAATT against Utrn, the z-score is inactive: 0.837. On to “GGAUUUACGACCUAACCAUTT against 0710008K08Rik”, for which the z-score was inactive: 0.336. As for “GGGUUCAGAAUAGAAAGAUTT against 2010002A20Rik”, the z-score is inactive: -1.2.

As to GCGUAUAUGUUAUGCUUCATT against Zpbp, the z-score is inactive: -0.336. Regarding GGCAUCACAGUGUACGAUUTT against Glis3, the z-score was inactive: -0.222.

In the case of “GGACAUAGCACGUCUUUUGTT against 2610529H08Rik”, the z-score was inactive: 0.608. As to GGAAGAUCUCUUGUCUGCUTT against Mtcp1, the z-score is inactive: 0.815. With GGUCUGAAGAAGAUUCUGGTT against AW538196, the z-score was inactive: 0.434. For the sequence GCCUGUUAGCUAUAUUAAGTT against Ahr, the z-score was inactive: 1.11.

As for “GGACUAGCCCUCUUUUAUUTT against 5830411N06Rik”, the z-score was inactive: -0.0761. Regarding CCAUGUGUCAAACUACCGGTT against Rbmx2, the z-score is inactive: 1.66.

On to CGAACUUGUACAGAAGAAUTT against Slfn3, for which the z-score was inactive: 0.147. In the case of CGUUUCUGUGGACAGAAUUTT against Tmem55b it was inactive: -0.174; in that of GCCUAUGAGGAACUACCUATT against Pga5, inactive: 0.113; in that of GGCUUGGCUAUGAAAAGUATT against Rusc2, inactive: -2.31. For UCAGCUUGCUCAUCAUUAATT against Wfdc13l1, the z-score is inactive: -0.524. Take CCAGCUCUCGAUUCCAUCATT against Fem1a: the z-score was inactive: -1.24. Take CGAGUUGCAGGAUUUCAAGTT against Slit3: the z-score was inactive: 0.0837. In the case of GGAAUUUGUGAAAAGAAGUTT against Aldh1a2 it was inactive: 0.884; in that of GCUUACAUGAACAUAUAGUTT against Tiparp, inactive: 0.445. To GCUCCGGAAAUUGGCAUCATT against Ppp1r10 belongs inactive: -0.471; to GGGUUUCUAUGAAGAGAUCTT against Fhod1, inactive: 0.594; to GGCUCGUUUGUACGACUUCTT against Pigm, inactive: -0.698.

As for CGUGGUUAAGGACUUGUUUTT against Nek7, the z-score is inactive: 0.283.

Turning to UGGAGCUAGCAAUACAGCGTT against MGC91195, the z-score is inactive: -0.79. With CCAAAUCCCAGAGUUAUUUTT against Htr2c, the z-score was inactive: 0.535. For the sequence CGUCCAUAGAACAAUUGCATT against Rnase12, the z-score was inactive: 0.323. For the sequence GCUCGAUAUCACAGAGAUUTT against Gm503, the z-score is inactive: -0.481. In the case of AUGGAAUCCAGUAUAGAGCTT against BC088983 it was inactive: -1.31. To GCUAAAGCAGCUCGUCUGGTT against Psmd11 belongs inactive: -2.94; to “GUACAAGCUGUGCAAGGUGTT against 1110033J19Rik”, inactive: -1.39.
